Not every detail of the peptide structures is certain; ends, links or a residue may be inferred. At least one structure is not confirmed: it was looked up by name or label, or the drawing left a doubt. Square brackets hold non-standard residues; d marks the D form. Peptide text beside a SMILES is read from it. d2Nal = N[C@H](Cc1ccc2ccccc2c1)C(=O)O; Aib = CC(C)(N)C(=O)O
Assays:
[1] = test system: rat model of post-operative ileus; assay: Gastric emptying (phenol red) after i.v. dosing, rat model of post-operative ileus (Example 2); assay type: in vivo
[2] = test system: rat model of POI; assay: Rat model of POI (running of the bowel), multiple doses (Example 10, series 2); assay type: in vivo
[3] = test system: rat model of post-operative ileus; assay: Gastric emptying (phenol red) after i.v. dosing, rat model of post-operative ileus (Example 3); assay type: in vivo; details: 0.01, 0.03 or 0.1 mg/kg i.v.; statistically significant at all dose levels
[4] = test system: rat model of post-operative ileus; assay: Gastric emptying (phenol red) after oral dosing, rat model of post-operative ileus (Example 1); assay type: in vivo; details: not statistically significant
[5] = biological target: GRLN receptor (Homo sapiens, UniProt Q92847); assay: Binding affinity with the GRLN receptor; details: relative to other reported ghrelin mimetics
[6] = test system: morphine-induced slowing of gastric emptying
[7] = test system: gastrointestinal motility in rats; assay: Gastrointestinal motility in rats by charcoal transit, 0.25 mg/kg i.v. (Example 8); assay type: in vivo, rat
Method: The objective of this study was to evaluate the pharmacological effects of a series of ghrelin mimetics on gastrointestinal motility in rats, as measured by charcoal transit, relative to a commonly used prokinetic agent, metoclopramide, and control, following a single intravenous infusion of the experimental agent. Each dosing formulation was prepared on the day of dosing. […] The reference article formulations were also prepared on the day of dosing by mixing the appropriate amount of reference article with the appropriate volume of vehicle to achieve the desired final concentration. The saline and metoclopramide (1 mg/mL) were used as supplied. Dosing was performed on consecutive days with approximately equal numbers of animals being dosed on each day. The animals were deprived of food overnight prior to treatment. Each formulation was administered by intravenous injection into the tail vein using a syringe and appropriate gauge needle. The dose volume was 5 mL/kg or 10 mL/kg (in the case of metoclopramide only). […] The charcoal was located and the distances from the pyloric sphincter to the most proximal and distal traces of charcoal were measured as was the total distance from the pyloric sphincter to the cecum. Also, the distance traveled by the charcoal as a percentage of the total length of the small intestine was measured.

Amino acid sequences for entries named in this document (tags omitted).
UniProt Q92847, whole entry: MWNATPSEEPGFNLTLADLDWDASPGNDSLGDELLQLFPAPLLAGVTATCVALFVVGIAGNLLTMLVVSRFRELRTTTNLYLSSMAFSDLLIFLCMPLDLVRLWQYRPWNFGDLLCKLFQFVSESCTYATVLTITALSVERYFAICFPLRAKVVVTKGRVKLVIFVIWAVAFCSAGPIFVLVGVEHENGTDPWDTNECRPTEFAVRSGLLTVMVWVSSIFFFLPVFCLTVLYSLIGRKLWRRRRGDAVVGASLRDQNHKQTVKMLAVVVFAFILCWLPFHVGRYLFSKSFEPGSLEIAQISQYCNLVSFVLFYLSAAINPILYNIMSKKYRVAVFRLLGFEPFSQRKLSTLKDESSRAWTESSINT

[8] = test system: gastrointestinal motility in rats; assay: Gastrointestinal motility in rats by charcoal transit, equimolar i.v. dose (Example 9); assay type: in vivo, rat; details: single intravenous dose of 75 μmoles/kg
Text: The objective of this study was to evaluate the pharmacological effects of a series of ghrelin mimetics on gastrointestinal motility in rats, as measured by charcoal transit, relative to control, following a single intravenous infusion of the experimental agent.
Dosing commenced on consecutive days with approximately equal numbers of animals from each group being dosed on each day. The animals were food deprived overnight prior to treatment. Prior to dosing, the animals were water deprived. The test/reference/positive control articles were administered by intravenous injection into the tail vein using a syringe and appropriate gauge needle. […]
At the end of the observation period, the rats were euthanized and the abdominal cavity was opened and the stomach and intestines were removed. […] The stomachs were weighed (with and without contents) and this was recorded to give an indication of gastric emptying. […] The charcoal was located and the distances from the pyloric sphincter to the most proximal and distal traces of charcoal were measured and recorded, as well as the total distance from the pyloric sphincter to the cecum (all distances were measured in mm). In addition to the stomachs weights (with and without contents) the distance traveled by the charcoal as a percentage of the total length of the small intestine was recorded to give an indication of the gastric emptying. […]

[9] = test system: rat model of POI; assay: Rat model of POI (running of the bowel), single dose (Example 10, series 1); assay type: in vivo
Text: Animals: Adult male Sprague-Dawley rats with indwelling catheters implanted in the right jugular vein were obtained from Charles River (Wilmington, Mass.). The initial body weight of the animals was 250-270 g. The catheters were maintained patent during the acclimation and were used for the dosing of ipamorelin or vehicle. An additional group of control rats, not subjected to surgery and drug or vehicle treatment, were purchased with an indwelling catheter implanted into the proximal colon (1-2 cm from the cecum) used for infusion of a dye marker measuring colonic transit. All rats were single-housed under controlled conditions (25° C., 12 h light/dark cycle) with free access to food and water. An acclimation period of at least one week was allowed prior to the experiments. • Induction of post-operative ileus (POI): POI was induced by a surgical procedure described as “running of the bowel” (Kalff et al., 1998). Specifically, rats were anesthetized with isoflurane (2-3%) inhalation, the abdomen was shaved, disinfected and a midline incision was made to expose the viscera. The small intestine and the cecum were exteriorized and inspected for 5 min using cotton applicators soaked in sterile saline. After completing the inspection, the intestine was covered with gauze soaked in saline and the abdomen remained open for additional 10 min. To study colonic transit, 200 μl of a non-absorbable dye marker (trypan blue in saline) was injected into the proximal colon (1 cm distal to the cecum). The incision was then closed with silk sutures. The whole procedure lasted 25-30 min. Surgeries were always performed at 6:00-8:00 AM and the animals received ipamorelin or vehicle treatment during the light phase of the light/dark cycle. • Measurement of colonic transit time: Prior to the experiments, the rats were fasted for 20-22 h with free access to water. […] Colonic transit time was evaluated as the period between the end of surgery and the appearance of dye in the fecal pellet. […] The cumulative fecal output was evaluated by adding the number of pellets throughout a 48-h post-surgical period. Food intake was recorded at 3-h interval or 12-h intervals according to the experimental design and was normalized as g/100 g body weight. The cumulative food intake was calculated for 48 h post-surgery in both series of experiments. Body weight was measured daily at 8:00-9:00 AM before fasting the animals, on the day of experiment before the surgery and at 24 h and 48 h post-surgery. Changes in body weight are expressed as body weight gain compared to the weight of the fasted animal taken before the surgery. • Test and control articles: The test compound ipamorelin (free base) was converted to the diacetate salt by mixing with 2 molar equivalents of glacial acetic acid. […]

[10] = single dose i.v., first 48 h post-surgery

CC(C)(N)C(=O)N[C@@H](Cc1c[nH]cn1)C(=O)N[C@H](Cc1ccc2ccccc2c1)C(=O)N[C@H](Cc1ccccc1)C(=O)N[C@@H](CCCCN)C(N)=O [ipamorelin, α-Methylalanine-L-histidine-D-β-(2-naphthyl)-alanine-D-phenylalanine-L-lysinamide] (H-[Aib]H[d2Nal][dF]K-NH2)
reduction in stomach phenol red content relative to the sham control group ([1]; 0.1 mg/kg i.v.): 87.1% | reduction in stomach phenol red content relative to the vehicle control group ([1]; 0.1 mg/kg i.v.): 85.7% | reduction in stomach phenol red content relative to the sham control group ([1]; 0.25 mg/kg i.v.): 96.0% | reduction in stomach phenol red content relative to the vehicle control group ([1]; 0.25 mg/kg i.v.): 95.6% | reduction in stomach phenol red content relative to the sham control group ([1]; 1.0 mg/kg i.v.): 93.1% | reduction in stomach phenol red content relative to the vehicle control group ([1]; 1.0 mg/kg i.v.): 92.2% | food intake ([2]; multiple doses i.v., higher doses): increase food intake | cumulative fecal pellet output compared to the vehicle ([2]; multiple doses of 0.01 mg/kg i.v.): no significant effect | body weight gain during the first 48 h after surgery compared to vehicle ([2]; multiple doses of 1 mg/kg i.v.): gained significantly more body weight | cumulative fecal pellet output compared to the vehicle ([2]; multiple doses, significant at 0.1 mg/kg or 1 mg/kg i.v.): increase in cumulative fecal pellet output | colonic transit compared to the vehicle ([2]; multiple dosing of 0.1 mg/kg or 1 mg/kg i.v.): significant acceleration of colonic transit | stomach phenol red content relative to the non-operated control group [3]: reductions in stomach phenol red content | stomach phenol red content relative to the vehicle control group [3]: reductions in stomach phenol red content | acceleration of stomach emptying compared to control animals ([4]; 10 mg/kg oral): approximately 12.4% | acceleration of stomach emptying compared to control animals ([4]; 100 mg/kg oral): ~41.6% | binding affinity with the GRLN receptor, weaker than many other reported ghrelin mimetics [5]: 2-3 logs | reversal of morphine-delayed gastric emptying ([6]; 0.01 mg/kg and 0.03 mg/kg IV with morphine 0.05 mg/kg IV, comparable to Example 6): reversed by both doses | morphine-induced slowing of gastrointestinal motility (plasma acetaminophen) ([6]; 0.06 mg/kg IV over 15 minutes, morphine 0.05 mg/kg IV, healthy volunteers): reverse in morphine-induced slowing of gastrointestinal motility | intestinal motility compared to saline-treated control group [7]: tendency towards an increase in intestinal motility | reduction of the amount of charcoal remaining in the stomach relative to the control group [7]: 66% | intestinal transit, proximal distance traveled by the charcoal from the pyloric sphincter [8]: resulted in gastric emptying by one of the two measures | body weight gain [9, 10]: neither ipamorelin nor GHRP-6 had a significant effect | fecal pellet output [9, 10]: neither ipamorelin nor GHRP-6 had a significant effect | food intake [9, 10]: neither ipamorelin nor GHRP-6 had a significant effect | colonic transit time ([9]; single post-surgical dose of 1 mg/kg i.v.): significantly decreased

Reference: patent US8039456B2, “Method of stimulating the motility of the gastrointestinal system using ipamorelin” (Helsinn Therapeutics (U.S.), Inc., priority 2004, dated 2011)
